# PubChem BioAssay AID743454, Peter MacCallum Cancer Centre | 2014
# Screen: 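Search for knock-downs that restore vorinostat killing in resistant colon cancer cells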 (primary screen)
# Cells: human HCT116-VR colon cancer cells, selected for vorinostat resistance
# Knock-down reagent: siRNA pool against human genes, 40 nM siRNA pool
# Timing: vorinostat for 24 h, read-out about 72 h after transfection
# Conditions: vorinostat at 2.5 µM final
# Read-out: 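Two measures, CellTiter-Fluor viability and luminescent caspase 3/7 activity, each as fold change against same-plate mock wells, mean of duplicates, then screen-wide robust z-score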
# Reading the numbers: viability robust z-score: higher = more viable cells than screen typical; caspase robust z-score: higher = more caspase 3/7 activity than screen typical
# Rule for the call: 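Hits are knock-downs in viability class RV1/RV2 or caspase class CA1/CA2, excluding ones that killed cells in the no-drug cell-count arm; hits then retested with single siRNAs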
# Here is an unselected part of about 18,000 deposited reagents. 450 of all reagents (2.5%) count as active. 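Single biological run; no consistent viability z cut-off exists, so the class columns, not z-scores, define the calls.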 A number with no mark means an inactive call. Reagent sequences are not shown.
Target gene,viability hit class,caspase hit class,viability robust z-score,caspase robust z-score
EYA1 (EYA transcriptional coactivator and phosphatase 1),no change,no change,0.66,0.15
AIMP2,no change,no change,-0.2,1.04
SSRP1 (structure specific recognition protein 1),no change,no change,-0.76,0.5
NEK11 (NIMA related kinase 11),no change,no change,-0.7,-0.02
LINC02915 (long independently transcribed non-coding RNA 2915),no change,no change,0.02,1.17
DSG3 (desmoglein 3),no change,no change,0.81,-0.6
SLC25A2,no change,no change,-0.86,-0.6
RAB3GAP2 (RAB3 GTPase activating non-catalytic protein subunit 2),no change,no change,1.59,-0.5
RNF145 (ring finger protein 145),no change,no change,-0.42,0.95
NUP58 (nucleoporin 58),RV1 (reduced viability) (active),no change,-2.98,2.34
NOTCH2NLA (notch 2 N-terminal like A),no change,no change,-0.06,-0.4
"MFSD2A (MFSD2 lysolipid transporter A, lysophospholipid)",no change,no change,-0.52,-0.6
SDCCAG8 (SHH signaling and ciliogenesis regulator SDCCAG8),no change,no change,0.01,-0.36
SACK1A (scaffolding CK1 anchoring protein A),no change,no change,0.3,0.74
PHLPP1 (PH domain and leucine rich repeat protein phosphatase 1),no change,no change,1.25,-0.4
APBB2 (amyloid beta precursor protein binding family B member 2),no change,no change,-0.26,1.9
LHPP,no change,no change,-0.71,0.36
DEXI (Dexi homolog),no change,no change,-0.25,-1.17
KRTAP9-4 (keratin associated protein 9-4),no change,no change,0.26,1.6
CHRNA7 (cholinergic receptor nicotinic alpha 7 subunit),RV2 (reduced viability) (active),no change,-2.91,-0.62
CEP131 (centrosomal protein 131),no change,no change,1.4,-0.16
SYNCRIP (synaptotagmin binding cytoplasmic RNA interacting protein),no change,no change,-0.93,0.72
CFDP1 (chromatin remodeling protein CFDP1),no change,no change,0.61,0.27
HERPUD1,no change,no change,0.55,-0.54
LIMD2 (LIM domain containing 2),no change,no change,0.09,-0.52
EFHB (EF-hand domain family member B),no change,no change,0.54,-0.78
PIK3R2 (phosphoinositide-3-kinase regulatory subunit 2),no change,no change,0.92,1.26
PLK2 (polo like kinase 2),no change,no change,1.18,-0.39
COL17A1 (collagen type XVII alpha 1 chain),no change,no change,-1.88,2.67
RANBP10 (RAN binding protein 10),no change,no change,0.54,-0.14
TTC21B (tetratricopeptide repeat domain 21B),no change,no change,-0.88,-0.73
FAM163A (family with sequence similarity 163 member A),no change,no change,-0.81,-0.72
TMED1 (transmembrane p24 trafficking protein 1),no change,no change,-0.05,-0.72
TMEM123 (transmembrane protein 123),no change,no change,-0.12,-0.94
SH3KBP1 (SH3 domain containing kinase binding protein 1),no change,no change,0.98,0.39
TSHZ3 (teashirt zinc finger homeobox 3),no change,no change,-0.42,2.48
OFCC1 (orofacial cleft 1 candidate 1 (pseudogene)),no change,no change,-0.52,-0.02
LSM14B (LSM family member 14B),no change,no change,-0.05,-0.86
OR5P3 (olfactory receptor family 5 subfamily P member 3),no change,no change,-0.57,0.34
NOP16 (NOP16 nucleolar protein),no change,no change,-2.53,0.22
MCPH1 (microcephalin 1),no change,no change,-0.81,0
PABIR2 (PABIR family member 2),no change,no change,-0.1,-0.88
OLR1 (oxidized low density lipoprotein receptor 1),no change,no change,-0.58,1.82
RAPGEFL1 (Rap guanine nucleotide exchange factor like 1),no change,no change,1.53,-1.03
VPS13A (vacuolar protein sorting 13 homolog A),no change,no change,0.97,0.52
OBP2B (odorant binding protein 2B),no change,no change,0.38,3.33
CHD6 (chromodomain helicase DNA binding protein 6),no change,no change,1.79,-0.32
NBPF9 (NBPF member 9),no change,no change,0.1,-1.16
KCNE1,no change (active),CA2 (caspase activation),-1.01,6.18
CARS1 (cysteinyl-tRNA synthetase 1),no change,no change,-0.8,-0.12
DEFB136 (defensin beta 136),no change,no change,-0.02,-1.14
MINDY4 (MINDY lysine 48 deubiquitinase 4),no change,no change,0.84,0.78
PHF10 (PHD finger protein 10),no change,no change,-0.73,-0.08
CDYL (chromodomain Y like),no change,no change,2.66,1.27
GOLGA8F (golgin A8 family member F),no change,no change,0.07,-0.57
TRIM37 (tripartite motif containing 37),no change,no change,1.24,0.07
CES5A (carboxylesterase 5A),no change,no change,-0.74,2.84

Entries above whose target name begins with K or k:
Target gene,viability hit class,caspase hit class,viability robust z-score,caspase robust z-score
KRTAP9-4 (keratin associated protein 9-4),no change,no change,0.26,1.6
KCNE1,no change (active),CA2 (caspase activation),-1.01,6.18
